A short description of the data set: general procedure: solution-phase peptide synthesis; N1-((ethylimino)methylene)-N3,N3-dimethylpropane-1,3-diamine hydrochloride.

The substance “(S)-10-benzyl-20-(4-(2,5-dioxo-2,5-dihydro-1H-pyrrol-1-yl)phenyl)-6,9,12,15,18-pentaoxo-3-oxa-5,8,11,14,17-pentaazaicosan-1-oic acid” returned a conjugation yield (conjugation step) of 24% yield.

“(S)-16-amino-10-benzyl-6,9,12,15-tetraoxo-3-oxa-5,8,11,14-tetraazahexadecan-1-oic acid” yielded a step yield (late stage modification step) of 58% yield.

The substance “(S)-benzyl 11-benzyl-3,6,9,12,15-pentaoxo-1-phenyl-2,18-dioxa-4,7,10,13,16-pentaazaicosan-20-oate” yielded a step yield (coupling step) of 34% yield.

Source of the values: patent US12280121B2 (Immunome, Inc., priority 2021, dated 2025).
